Laboratory results taken from PMC10476466.
No constants are given. Whether binding was seen depends on the method and setting. In cells and extracts the contact can be indirect. Some results given as binding are weak or reduced against the parent protein; the word gives no strength.

Amino acid sequences for entries named in this document (tags omitted).
UniProt P06748: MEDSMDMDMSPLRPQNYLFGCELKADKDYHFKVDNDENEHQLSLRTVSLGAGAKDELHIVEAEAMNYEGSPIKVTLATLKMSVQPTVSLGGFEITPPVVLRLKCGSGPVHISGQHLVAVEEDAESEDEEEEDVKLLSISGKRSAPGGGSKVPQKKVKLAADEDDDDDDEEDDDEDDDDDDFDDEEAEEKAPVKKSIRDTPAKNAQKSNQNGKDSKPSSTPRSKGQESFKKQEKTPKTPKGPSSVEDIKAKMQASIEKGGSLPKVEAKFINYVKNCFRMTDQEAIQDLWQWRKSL

Tests used:
PH domain of PLD1 = target: T1, PH domain of PLD1 (UniProt Q13393); experiment: co-IP; with PLD1 deletion constructs and with NPM1 deletion constructs; host and tags not shown
T1 sequence: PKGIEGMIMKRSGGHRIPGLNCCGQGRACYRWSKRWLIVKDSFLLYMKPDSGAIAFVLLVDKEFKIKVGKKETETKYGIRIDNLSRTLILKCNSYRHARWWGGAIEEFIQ

phospholipase D1 (PLD1) [1] = target: T2, phospholipase D1 (PLD1) (UniProt Q13393); experiment: co-IP; after nucleocytoplasmic separation (NE-PER nuclear and cytoplasmic extracts) of EV, WT, NLM and KRM cell lines; antibody on protein A/G magnetic beads, overnight at 4°C
T2 sequence: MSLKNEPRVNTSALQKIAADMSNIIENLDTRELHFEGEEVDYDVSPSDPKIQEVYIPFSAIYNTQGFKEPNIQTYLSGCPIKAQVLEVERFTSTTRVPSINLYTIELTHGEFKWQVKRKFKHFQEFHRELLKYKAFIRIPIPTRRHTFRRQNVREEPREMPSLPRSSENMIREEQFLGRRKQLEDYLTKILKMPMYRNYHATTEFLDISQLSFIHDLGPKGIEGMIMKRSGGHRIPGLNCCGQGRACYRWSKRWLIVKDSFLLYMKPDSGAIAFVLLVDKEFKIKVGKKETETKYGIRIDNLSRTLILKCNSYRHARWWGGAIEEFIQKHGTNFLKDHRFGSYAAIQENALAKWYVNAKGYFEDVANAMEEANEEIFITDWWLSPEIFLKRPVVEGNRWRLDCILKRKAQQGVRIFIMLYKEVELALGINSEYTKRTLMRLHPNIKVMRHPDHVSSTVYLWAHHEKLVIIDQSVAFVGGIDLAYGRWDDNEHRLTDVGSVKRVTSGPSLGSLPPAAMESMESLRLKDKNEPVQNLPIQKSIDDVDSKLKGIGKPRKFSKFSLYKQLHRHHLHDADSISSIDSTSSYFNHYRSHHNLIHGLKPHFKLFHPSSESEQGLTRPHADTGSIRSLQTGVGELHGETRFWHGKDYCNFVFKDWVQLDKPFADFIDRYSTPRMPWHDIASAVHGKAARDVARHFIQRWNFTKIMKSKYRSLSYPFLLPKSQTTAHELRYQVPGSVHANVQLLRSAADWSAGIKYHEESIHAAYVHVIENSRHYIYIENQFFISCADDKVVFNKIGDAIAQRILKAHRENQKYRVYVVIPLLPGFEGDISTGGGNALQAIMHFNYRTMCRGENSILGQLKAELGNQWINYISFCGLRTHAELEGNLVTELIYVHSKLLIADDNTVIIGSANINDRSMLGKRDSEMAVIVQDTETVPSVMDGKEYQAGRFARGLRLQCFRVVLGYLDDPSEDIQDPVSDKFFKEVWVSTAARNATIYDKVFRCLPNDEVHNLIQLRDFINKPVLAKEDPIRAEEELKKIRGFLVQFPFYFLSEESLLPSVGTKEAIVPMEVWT

phospholipase D1 (PLD1) [2] = target: T2, phospholipase D1 (PLD1); experiment: co-IP; PLD1 or NPM1 antibody on protein A/G magnetic beads, incubated with cell extracts overnight at 4°C, washed 5 times with PBS containing 0.1% NP-40, Western blot; PLD1 overexpression cell lines

Measured: binding

nucleophosmin 1 (NPM1) (from UniProt P06748 1-294)
binds: all assays above
